Measured values from publication doi:10.1101/2021.02.08.430339.

Chains of the proteins cited; added tags and fusions are not shown.
UniProt O94864: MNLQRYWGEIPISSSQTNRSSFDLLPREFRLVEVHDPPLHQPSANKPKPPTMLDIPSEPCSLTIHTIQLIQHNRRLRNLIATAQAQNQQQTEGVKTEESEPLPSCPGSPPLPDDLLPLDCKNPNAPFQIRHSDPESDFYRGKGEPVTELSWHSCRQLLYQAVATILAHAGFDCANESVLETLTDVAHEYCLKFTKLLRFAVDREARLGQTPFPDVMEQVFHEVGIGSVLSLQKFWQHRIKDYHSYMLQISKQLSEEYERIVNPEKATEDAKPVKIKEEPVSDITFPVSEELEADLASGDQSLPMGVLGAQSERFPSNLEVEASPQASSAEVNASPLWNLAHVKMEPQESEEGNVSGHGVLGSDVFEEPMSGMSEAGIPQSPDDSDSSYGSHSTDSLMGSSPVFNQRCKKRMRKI
UniProt P20226: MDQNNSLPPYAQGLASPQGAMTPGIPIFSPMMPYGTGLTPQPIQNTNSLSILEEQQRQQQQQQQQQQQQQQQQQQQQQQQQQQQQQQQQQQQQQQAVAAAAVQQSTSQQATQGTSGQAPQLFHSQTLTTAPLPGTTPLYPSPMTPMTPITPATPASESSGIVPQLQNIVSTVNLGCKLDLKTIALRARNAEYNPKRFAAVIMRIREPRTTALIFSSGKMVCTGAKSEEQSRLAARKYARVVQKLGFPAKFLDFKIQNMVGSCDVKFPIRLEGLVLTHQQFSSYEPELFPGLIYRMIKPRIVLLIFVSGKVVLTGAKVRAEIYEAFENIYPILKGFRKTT

Target: Halo-FLAG-tagged chromosomal SUPT7L (human (endogenous in HeLa)) (UniProt O94864)
Test: affinity purification with mass spectrometry

binding: no binding
Substance: endogenous TBP (TATA-binding protein) (from UniProt P20226 1-339)

These are yes or no findings as the source states them, for the method shown. Binding seen in cells or lysates may run through a third protein. These calls come from enrichment with a bait or labelling near it, and not all partners need be listed. No binding means not detected with the bait.
